These results are taken from article PMC12455585.

Common to all, as to test: fluorescence anisotropy
For orientation: Fluorescence polarisation rises when a labelled molecule tumbles more slowly, as on binding a larger partner.

Data set [1] relates to OBMg group 2 triple mutant (Moorella glycerini). As to conditions: 50 mM NaCl; 50 mM HEPES-NaOH pH 7.2, 50 mM NaCl (50-250 mM in salt series), 20 or 50 nM DNA, 60 min, 25 C; recombinant protein; protein details: His6-SUMO removed; label: 5' FAM on 5' phosphate of strand 1.
Data set [2] relates to OBMg N103A (Moorella glycerini). As to conditions: 50 mM NaCl, almost no effect vs WT; 50 mM HEPES-NaOH pH 7.2, 50 mM NaCl (50-250 mM in salt series), 20 or 50 nM DNA, 60 min, 25 C; recombinant protein; protein details: His6-SUMO removed; label: 5' FAM on 5' phosphate of strand 1.
Data set [3] deals with OBMg group 1 triple mutant (Moorella glycerini). To be noted: 50 mM NaCl; 50 mM HEPES-NaOH pH 7.2, 50 mM NaCl (50-250 mM in salt series), 20 or 50 nM DNA, 60 min, 25 C; recombinant protein; protein details: His6-SUMO removed; label: 5' FAM on 5' phosphate of strand 1.
The subject of data set [4] is OBMg group 3 triple mutant (Moorella glycerini). To be noted: 50 mM NaCl; 50 mM HEPES-NaOH pH 7.2, 50 mM NaCl (50-250 mM in salt series), 20 or 50 nM DNA, 60 min, 25 C; recombinant protein; protein details: His6-SUMO removed; label: 5' FAM on 5' phosphate of strand 1.
In data set [5] the test system is OBMg H120A (Moorella glycerini). As to conditions: 50 mM NaCl, almost no effect vs WT; 50 mM HEPES-NaOH pH 7.2, 50 mM NaCl (50-250 mM in salt series), 20 or 50 nM DNA, 60 min, 25 C; recombinant protein; protein details: His6-SUMO removed; label: 5' FAM on 5' phosphate of strand 1.
Data set [6] concerns OBMg K121A (Moorella glycerini). As to conditions: 50 mM NaCl, almost no effect vs WT; 50 mM HEPES-NaOH pH 7.2, 50 mM NaCl (50-250 mM in salt series), 20 or 50 nM DNA, 60 min, 25 C; recombinant protein; protein details: His6-SUMO removed; label: 5' FAM on 5' phosphate of strand 1.

Construct, isoform or probe ends are uncertain for at least one entry. For part of these data: Weaker means in comparison with the reference protein, sequence or condition of that experiment.

For the sequence “GTTCGCAACGAA (double strand) [12 bp dsDNA]”, the binding result in data set [1] was “binds more weakly”; in data set [2] it was “binds”; in data set [3], “binds more weakly”; in data set [4], “binds more weakly”; in data set [5], “binds”; in data set [6] it was “binds”.
